This note sets out measurements from publication PMC10290057.

The chains behind the UniProt entries cited, without tags or fusion partners.
UniProt P11387: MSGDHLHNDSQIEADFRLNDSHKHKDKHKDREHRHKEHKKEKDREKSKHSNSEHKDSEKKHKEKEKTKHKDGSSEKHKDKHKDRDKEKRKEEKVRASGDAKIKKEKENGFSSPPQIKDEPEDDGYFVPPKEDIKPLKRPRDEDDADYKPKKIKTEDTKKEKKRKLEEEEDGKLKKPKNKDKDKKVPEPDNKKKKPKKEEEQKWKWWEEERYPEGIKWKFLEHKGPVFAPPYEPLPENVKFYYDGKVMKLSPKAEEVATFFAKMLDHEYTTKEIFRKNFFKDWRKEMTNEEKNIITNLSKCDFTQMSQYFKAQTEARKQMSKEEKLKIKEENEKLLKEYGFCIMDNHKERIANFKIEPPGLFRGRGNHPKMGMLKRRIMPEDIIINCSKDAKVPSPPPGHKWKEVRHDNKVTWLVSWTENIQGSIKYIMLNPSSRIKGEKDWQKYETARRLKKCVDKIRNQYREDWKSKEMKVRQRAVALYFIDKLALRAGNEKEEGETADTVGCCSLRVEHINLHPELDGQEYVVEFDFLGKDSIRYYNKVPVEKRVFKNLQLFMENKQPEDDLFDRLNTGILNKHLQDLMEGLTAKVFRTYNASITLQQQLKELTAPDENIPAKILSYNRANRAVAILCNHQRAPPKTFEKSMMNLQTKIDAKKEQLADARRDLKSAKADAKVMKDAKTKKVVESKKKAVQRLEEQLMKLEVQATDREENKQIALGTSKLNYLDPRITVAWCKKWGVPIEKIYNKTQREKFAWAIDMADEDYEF

No constants are given. Whether binding was seen depends on the method and setting. Binding seen in cells or lysates may run through a third protein. Binding calls can cover weak binding; strength is not graded here. For some assays here: Sequences can lack the tags named with a protein.

For test [1], the target named is DCAF13-FLAG putative WD40 repeat #1 Δ (human) (UniProt Q9NV06). The test is described as follows: co-IP; FLAG-IP (anti-FLAG M2, Protein A/G PLUS-agarose) from benzonase-treated lysates of HCT116 cells transfected with DCAF13-FLAG constructs, CPT (20 µM, 30 min) in presence of BTZ (1 µM); washed with RIPA buffer; immunoblot. A general note: In western blotting, separated proteins are transferred to a membrane and probed.

The target in test [2] is 6×His-tagged TOP1 core domain (CD) (human). The test is described as follows: pull-down; His-tag pull-down from lysates of HCT116 cells expressing 6×His-TOP1 constructs and DCAF13-FLAG; lysate in IP lysis buffer, sonicated, benzonase-treated, then Ni-NTA-agarose overnight at 4 °C in Buffer A (6 M guanidine-HCl, 0.1 M Na2HPO4/NaH2PO4, 10 mM imidazole pH 8.0); immunoblot; cells treated with DMSO or CPT (20 µM, 30 min) ± APH (10 µM), or CPT with BTZ (1 µM).

On to “TOP1, endogenous (co-precipitated with DCAF13-FLAG constructs) (from UniProt P11387 1-765) (enzyme)”, for which, in test [1], the binding entry is “binds”.

B1: DCAF13-FLAG (DDB1 and Cullin Associated Factor 13), wild type (protein, UniProt Q9NV06 1-445)
chain: MKVKMLSRNPDNYVRETKLDLQRVPRNYDPALHPFEVPREYIRALNATKLERVFAKPFLASLDGHRDGVNCLAKHPEKLATVLSGACDGEVRIWNLTQRNCIRTIQAHEGFVRGICTRFCGTSFFTVGDDKTVKQWKMDGPGYGDEEEPLHTILGKTVYTGIDHHWKEAVFATCGQQVDIWDEQRTNPICSMTWGFDSISSVKFNPIETFLLGSCASDRNIVLYDMRQATPLKKVILDMRTNTICWNPMEAFIFTAANEDYNLYTFDMRALDTPVMVHMDHVSAVLDVDYSPTGKEFVSASFDKSIRIFPVDKSRSREVYHTKRMQHVICVKWTSDSKYIMCGSDEMNIRLWKANASEKLGVLTSREKAAKDYNQKLKEKFQHYPHIKRIARHRHLPKSIYSQIQEQRIMKEARRRKEVNRIKHSKPGSVPLVSEKKKHVVAVVK
As for B1, the binding result in test [2] is “binds”.
